The list shows a part of the results. The data scatter; read single values as rough.
Legend:
[1] = compound: ClCC(=O)N[C@@H]1CCCc2ccccc12; test: log2 mean competition ratio of IA-DTB cysteine labelling (DMSO/compound) (log2 ratio); higher = stronger cysteine engagement by compound; conditions: treatment time: 4 h, cell line lysate: HEK293T
Procedure: (§1)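 IA-DTB competitive cysteine chemoproteomics in HEK293T RIPA lysate. Lysates were treated with compound 29 or 30 at 50 or 200 µM for 4 h, then IA-DTB (500 µM, 1 h), trypsin-digested, NeutrAvidin-enriched and analysed by diaPASEF. Competition ratio = intensity DMSO / intensity compound (n=4 treated, n=64 DMSO); binding: mean log2 CR ≥ 1 and p ≤ 0.05 plus QC filters. Target is the cysteine site.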

Protein sequences, listed by entry. Tags and fused reporters are not part of them. Lines headed by an entry give the natural chain unless they say otherwise; changes in a name come on top. Residues count along the entry.
UniProt Q9H1K1: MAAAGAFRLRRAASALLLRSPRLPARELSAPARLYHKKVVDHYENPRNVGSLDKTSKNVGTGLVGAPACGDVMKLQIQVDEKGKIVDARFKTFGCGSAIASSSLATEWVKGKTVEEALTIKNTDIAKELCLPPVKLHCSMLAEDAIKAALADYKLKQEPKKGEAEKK
UniProt O75037, 238-268: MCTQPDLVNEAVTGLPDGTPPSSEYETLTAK
UniProt O15037, 142-162: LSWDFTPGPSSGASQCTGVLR
UniProt O95239, 1046-1074: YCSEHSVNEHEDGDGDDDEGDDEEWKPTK
UniProt O00139: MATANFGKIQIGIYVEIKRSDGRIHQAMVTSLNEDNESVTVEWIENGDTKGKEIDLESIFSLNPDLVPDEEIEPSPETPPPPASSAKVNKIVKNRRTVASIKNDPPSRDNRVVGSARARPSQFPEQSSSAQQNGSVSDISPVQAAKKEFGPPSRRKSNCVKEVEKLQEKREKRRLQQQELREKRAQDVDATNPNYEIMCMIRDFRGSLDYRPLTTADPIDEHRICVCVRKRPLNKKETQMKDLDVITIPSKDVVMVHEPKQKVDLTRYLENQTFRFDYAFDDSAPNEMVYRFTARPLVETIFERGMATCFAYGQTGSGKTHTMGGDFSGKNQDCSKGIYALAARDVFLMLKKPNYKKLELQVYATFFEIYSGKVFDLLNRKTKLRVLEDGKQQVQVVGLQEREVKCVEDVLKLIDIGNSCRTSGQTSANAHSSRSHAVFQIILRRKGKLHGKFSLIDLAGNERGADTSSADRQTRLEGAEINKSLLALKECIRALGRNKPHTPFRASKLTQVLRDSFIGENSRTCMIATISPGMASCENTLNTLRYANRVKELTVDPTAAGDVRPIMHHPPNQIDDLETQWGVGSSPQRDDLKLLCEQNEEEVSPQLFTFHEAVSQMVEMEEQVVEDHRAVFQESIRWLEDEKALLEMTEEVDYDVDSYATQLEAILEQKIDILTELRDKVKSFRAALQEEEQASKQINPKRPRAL
UniProt Q9H9V9, 86-107: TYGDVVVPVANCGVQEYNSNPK
UniProt Q9HDC5: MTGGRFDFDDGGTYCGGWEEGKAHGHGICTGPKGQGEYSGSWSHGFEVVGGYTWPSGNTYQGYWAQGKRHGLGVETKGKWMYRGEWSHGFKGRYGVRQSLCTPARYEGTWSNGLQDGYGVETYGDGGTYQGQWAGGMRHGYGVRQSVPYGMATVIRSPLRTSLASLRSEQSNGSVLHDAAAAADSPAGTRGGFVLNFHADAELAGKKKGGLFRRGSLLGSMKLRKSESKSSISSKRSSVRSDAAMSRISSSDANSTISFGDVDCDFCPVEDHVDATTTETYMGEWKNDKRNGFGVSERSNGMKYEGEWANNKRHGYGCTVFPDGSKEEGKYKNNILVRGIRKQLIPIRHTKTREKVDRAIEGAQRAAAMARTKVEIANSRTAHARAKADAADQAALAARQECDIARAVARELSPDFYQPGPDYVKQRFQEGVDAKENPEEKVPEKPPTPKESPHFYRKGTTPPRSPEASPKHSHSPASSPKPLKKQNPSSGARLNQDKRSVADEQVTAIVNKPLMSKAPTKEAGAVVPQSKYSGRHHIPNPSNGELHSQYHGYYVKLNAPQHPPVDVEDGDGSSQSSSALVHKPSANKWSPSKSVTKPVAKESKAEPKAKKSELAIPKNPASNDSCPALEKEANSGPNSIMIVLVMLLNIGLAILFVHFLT
UniProt P14923, 87-115: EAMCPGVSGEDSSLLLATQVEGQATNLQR
UniProt Q9Y6Y0, 266-286: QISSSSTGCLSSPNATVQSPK
UniProt Q14571, whole entry, looked up: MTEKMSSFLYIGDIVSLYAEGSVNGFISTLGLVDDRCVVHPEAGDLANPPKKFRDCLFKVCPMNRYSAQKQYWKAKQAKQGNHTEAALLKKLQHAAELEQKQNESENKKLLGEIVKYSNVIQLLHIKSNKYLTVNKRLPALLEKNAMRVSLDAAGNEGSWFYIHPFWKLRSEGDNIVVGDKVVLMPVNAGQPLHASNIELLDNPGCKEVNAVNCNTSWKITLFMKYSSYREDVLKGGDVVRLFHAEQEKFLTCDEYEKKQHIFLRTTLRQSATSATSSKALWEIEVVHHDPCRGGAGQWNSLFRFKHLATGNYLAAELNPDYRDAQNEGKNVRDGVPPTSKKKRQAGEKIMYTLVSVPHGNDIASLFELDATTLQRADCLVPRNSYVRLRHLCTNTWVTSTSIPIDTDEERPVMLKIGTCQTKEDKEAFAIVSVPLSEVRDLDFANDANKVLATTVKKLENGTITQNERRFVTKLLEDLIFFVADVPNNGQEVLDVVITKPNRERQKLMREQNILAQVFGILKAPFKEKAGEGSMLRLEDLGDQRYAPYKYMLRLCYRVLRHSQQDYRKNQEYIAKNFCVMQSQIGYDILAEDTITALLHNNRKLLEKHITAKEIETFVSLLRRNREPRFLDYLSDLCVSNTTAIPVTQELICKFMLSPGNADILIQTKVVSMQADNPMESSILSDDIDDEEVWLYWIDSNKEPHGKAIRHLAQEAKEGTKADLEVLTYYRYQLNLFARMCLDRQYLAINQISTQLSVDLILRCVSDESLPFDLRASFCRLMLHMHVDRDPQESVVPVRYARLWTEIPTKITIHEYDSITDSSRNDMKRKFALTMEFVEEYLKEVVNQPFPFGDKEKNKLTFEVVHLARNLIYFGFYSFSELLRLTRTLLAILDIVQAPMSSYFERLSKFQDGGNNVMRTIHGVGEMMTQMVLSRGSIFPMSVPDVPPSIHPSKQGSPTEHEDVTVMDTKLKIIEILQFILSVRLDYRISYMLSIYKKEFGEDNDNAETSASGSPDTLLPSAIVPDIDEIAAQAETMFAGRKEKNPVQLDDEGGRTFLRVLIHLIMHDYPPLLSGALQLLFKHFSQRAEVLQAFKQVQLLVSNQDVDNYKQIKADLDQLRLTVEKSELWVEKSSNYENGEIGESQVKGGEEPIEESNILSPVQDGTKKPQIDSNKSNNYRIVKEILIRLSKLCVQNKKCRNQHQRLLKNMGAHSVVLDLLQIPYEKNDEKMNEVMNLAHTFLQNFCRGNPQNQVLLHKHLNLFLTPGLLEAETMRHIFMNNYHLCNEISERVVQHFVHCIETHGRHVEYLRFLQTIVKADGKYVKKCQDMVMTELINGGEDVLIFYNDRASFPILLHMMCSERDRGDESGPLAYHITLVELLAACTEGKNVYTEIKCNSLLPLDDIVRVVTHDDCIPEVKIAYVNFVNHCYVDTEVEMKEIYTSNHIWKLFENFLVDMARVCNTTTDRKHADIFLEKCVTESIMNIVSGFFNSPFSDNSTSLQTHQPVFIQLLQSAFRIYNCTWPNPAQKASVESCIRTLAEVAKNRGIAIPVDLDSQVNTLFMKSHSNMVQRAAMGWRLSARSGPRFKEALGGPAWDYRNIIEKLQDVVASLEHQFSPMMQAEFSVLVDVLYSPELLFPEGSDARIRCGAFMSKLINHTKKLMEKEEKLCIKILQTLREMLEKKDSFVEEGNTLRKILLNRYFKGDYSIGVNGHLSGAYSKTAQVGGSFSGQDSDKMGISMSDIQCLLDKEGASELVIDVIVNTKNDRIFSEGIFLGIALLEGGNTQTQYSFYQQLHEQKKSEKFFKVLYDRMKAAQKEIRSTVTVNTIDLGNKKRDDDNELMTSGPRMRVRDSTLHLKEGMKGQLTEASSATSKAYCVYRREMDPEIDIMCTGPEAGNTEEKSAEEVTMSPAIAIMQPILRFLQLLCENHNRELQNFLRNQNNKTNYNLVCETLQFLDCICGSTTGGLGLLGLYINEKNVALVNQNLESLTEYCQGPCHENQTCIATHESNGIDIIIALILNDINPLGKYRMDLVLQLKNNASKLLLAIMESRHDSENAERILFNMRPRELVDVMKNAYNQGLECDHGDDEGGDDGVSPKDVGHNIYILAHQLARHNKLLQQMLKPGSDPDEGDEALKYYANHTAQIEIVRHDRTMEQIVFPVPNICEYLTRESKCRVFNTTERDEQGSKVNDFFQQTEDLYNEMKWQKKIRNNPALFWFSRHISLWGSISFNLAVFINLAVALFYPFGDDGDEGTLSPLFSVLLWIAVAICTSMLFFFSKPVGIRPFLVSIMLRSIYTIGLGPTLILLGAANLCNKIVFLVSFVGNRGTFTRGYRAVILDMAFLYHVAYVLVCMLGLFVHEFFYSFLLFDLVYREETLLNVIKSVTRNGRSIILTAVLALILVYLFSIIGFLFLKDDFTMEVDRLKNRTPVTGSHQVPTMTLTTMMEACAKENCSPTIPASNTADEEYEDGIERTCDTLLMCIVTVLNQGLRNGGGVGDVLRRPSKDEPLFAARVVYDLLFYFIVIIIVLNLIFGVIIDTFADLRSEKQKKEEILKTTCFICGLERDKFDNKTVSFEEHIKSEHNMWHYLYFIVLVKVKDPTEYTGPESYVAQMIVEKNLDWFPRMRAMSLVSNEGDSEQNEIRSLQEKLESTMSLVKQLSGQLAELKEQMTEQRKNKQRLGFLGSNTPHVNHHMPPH
UniProt P29375: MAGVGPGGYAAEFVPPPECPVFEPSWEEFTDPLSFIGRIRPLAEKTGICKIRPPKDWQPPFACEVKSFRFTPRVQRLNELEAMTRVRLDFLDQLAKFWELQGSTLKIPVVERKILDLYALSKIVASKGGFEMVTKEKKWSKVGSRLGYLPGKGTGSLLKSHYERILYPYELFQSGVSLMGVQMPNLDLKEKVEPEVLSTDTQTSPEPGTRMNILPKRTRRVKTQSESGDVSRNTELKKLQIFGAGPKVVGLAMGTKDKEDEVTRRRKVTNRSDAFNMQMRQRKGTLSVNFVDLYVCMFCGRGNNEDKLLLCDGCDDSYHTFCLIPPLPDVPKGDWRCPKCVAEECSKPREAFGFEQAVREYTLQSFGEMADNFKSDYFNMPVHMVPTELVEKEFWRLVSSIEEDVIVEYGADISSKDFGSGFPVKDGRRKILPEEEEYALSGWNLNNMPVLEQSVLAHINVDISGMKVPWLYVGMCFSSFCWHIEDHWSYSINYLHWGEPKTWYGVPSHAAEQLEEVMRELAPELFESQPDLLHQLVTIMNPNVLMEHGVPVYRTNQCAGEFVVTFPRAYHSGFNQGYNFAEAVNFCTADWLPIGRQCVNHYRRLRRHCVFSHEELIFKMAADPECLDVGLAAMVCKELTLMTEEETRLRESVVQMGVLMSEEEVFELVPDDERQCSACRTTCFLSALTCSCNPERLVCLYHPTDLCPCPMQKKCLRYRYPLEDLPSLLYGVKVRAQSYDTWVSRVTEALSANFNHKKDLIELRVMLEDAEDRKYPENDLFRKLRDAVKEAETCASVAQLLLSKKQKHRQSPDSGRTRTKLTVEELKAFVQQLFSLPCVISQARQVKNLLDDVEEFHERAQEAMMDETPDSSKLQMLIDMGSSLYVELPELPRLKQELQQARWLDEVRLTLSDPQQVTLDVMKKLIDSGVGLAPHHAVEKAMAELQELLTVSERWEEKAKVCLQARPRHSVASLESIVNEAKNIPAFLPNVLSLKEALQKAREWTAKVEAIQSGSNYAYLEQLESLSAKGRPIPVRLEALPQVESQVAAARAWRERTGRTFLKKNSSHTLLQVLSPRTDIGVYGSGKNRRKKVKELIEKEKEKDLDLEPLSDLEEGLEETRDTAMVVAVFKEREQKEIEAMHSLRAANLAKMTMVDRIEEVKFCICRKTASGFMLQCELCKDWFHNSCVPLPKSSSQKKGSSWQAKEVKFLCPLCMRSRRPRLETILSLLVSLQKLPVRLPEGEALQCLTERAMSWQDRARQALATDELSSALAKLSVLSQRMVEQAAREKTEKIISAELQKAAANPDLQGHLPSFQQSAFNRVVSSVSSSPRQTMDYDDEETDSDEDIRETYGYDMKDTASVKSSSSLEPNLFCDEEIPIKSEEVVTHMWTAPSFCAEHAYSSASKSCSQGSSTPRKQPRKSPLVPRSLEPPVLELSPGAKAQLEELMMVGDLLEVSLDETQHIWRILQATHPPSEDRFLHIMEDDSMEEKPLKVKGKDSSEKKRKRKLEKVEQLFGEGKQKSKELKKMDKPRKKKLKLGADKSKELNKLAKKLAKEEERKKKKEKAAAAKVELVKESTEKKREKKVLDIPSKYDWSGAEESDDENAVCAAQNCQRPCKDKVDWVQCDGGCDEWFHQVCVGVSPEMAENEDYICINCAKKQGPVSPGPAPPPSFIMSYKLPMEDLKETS
UniProt O00180: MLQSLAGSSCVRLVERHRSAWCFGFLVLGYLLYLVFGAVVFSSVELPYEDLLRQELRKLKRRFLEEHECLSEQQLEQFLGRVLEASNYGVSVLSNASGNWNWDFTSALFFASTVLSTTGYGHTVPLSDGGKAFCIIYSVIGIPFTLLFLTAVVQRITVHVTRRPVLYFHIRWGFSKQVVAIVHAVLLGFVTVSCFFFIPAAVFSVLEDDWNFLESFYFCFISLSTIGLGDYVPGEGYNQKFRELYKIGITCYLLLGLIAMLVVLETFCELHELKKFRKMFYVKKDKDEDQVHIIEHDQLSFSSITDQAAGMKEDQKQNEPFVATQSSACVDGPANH

[2] = compound: ClCC(=O)N[C@H]1CCCc2ccccc12; test: as above; conditions: treatment time: 4 h, cell line lysate: HEK293T
Procedure: as §1

Row | Target | log2 mean competition ratio ([1]; 50 µM) | log2 mean competition ratio ([1]; 200 µM) | log2 mean competition ratio ([2]; 50 µM) | log2 mean competition ratio ([2]; 200 µM)
1 | ITFG2 C140 | -0.308 | -0.133 | – | –
2 | KDM1B C465 (UniProt Q8NB78) | -0.136 | -0.135 | – | –
3 | KIAA1671 C817 | 0.0147 | -0.0584 | – | –
4 | KDM4C C14 (UniProt Q9H3R0) | -0.114 | -0.0445 | -0.0878 | 0.167
5 | KCTD3 C599 (UniProt Q9Y597) | 0.0774 | 0.0362 | – | –
6 | ISCU C130 (UniProt Q9H1K1) | -0.0644 | -0.241 | – | –
7 | KAT6A C393 | 0.213 | 0.164 | – | –
8 | KIF11 C773 (UniProt P52732) | 0.0314 | -0.0732 | 0.0906 | -0.121
9 | KAT14 C478 (UniProt Q9H8E8) | 0.41 | 0.59 | 0.367 | 0.175
10 | IRS4 C381 | 0.284 | 0.144 | – | –
11 | KDM5C C327 (UniProt P41229) | -0.321 | -0.246 | – | –
12 | KCTD20 C369 (UniProt Q7Z5Y7) | 0.00694 | 0.293 | – | –
13 | KIF21B C239 (UniProt O75037) | -0.12 | 0.182 | – | -0.712
14 | KIF26A C1776 (UniProt Q9ULI4) | -0.217 | -0.0221 | -0.25 | –
15 | KHNYN C157 (UniProt O15037) | 0.409 | 1.09 | 0.225 | 1.03
16 | KANK1 C1072 (UniProt Q14678) | -0.447 | 0.0814 | – | –
17 | KIF20A C332 (UniProt O95235) | 0.138 | 0.0296 | – | –
18 | KHNYN C221 (UniProt O15037) | 0.215 | 0.121 | 0.194 | 0.178
19 | KIF23 C933 (UniProt Q02241) | -0.0462 | -0.0513 | – | –
20 | JADE3 C732 (UniProt Q92613) | -0.146 | 0.146 | – | –

Row | Target | log2 mean competition ratio ([1]; 50 µM) | log2 mean competition ratio ([1]; 200 µM) | log2 mean competition ratio ([2]; 50 µM) | log2 mean competition ratio ([2]; 200 µM)
21 | KIF4A C895 (UniProt O95239) | 0.0481 | 0.0224 | – | –
22 | ITPR3 C254 (UniProt Q14573) | 0.27 | -0.0535 | 0.256 | -0.132
23 | KIF2A C309 (UniProt O00139) | 0.404 | 0.095 | – | –
24 | KIF2A C420 (UniProt O00139) | -0.0766 | 0.216 | – | –
25 | JMJD4 C143 (UniProt Q9H9V9) | -0.281 | 0.043 | – | –
26 | JAK1 C944 (UniProt P23458) | -0.0598 | 0.0699 | – | –
27 | ITGAV C172 (UniProt P06756) | 0.0336 | 0.241 | – | –
28 | JPH1 C626 (UniProt Q9HDC5) | -0.109 | 0.011 | – | –
29 | KDM2A C429 (UniProt Q9Y2K7) | -0.168 | 0.535 | – | –
30 | KDM3A C390 (UniProt Q9Y4C1) | -0.297 | 0.281 | – | –
31 | KAT14 C547 (UniProt Q9H8E8) | -0.123 | 0.216 | 0.273 | 0.217
32 | KATNAL1 C7 (UniProt Q9BW62) | 0.165 | 0.0316 | -0.00468 | 0.413
33 | JRK C166 (UniProt O75564) | -0.311 | 0.909 | – | 0.101
34 | ITPR1 C1545 (UniProt Q14643) | -0.124 | -0.0298 | 0.243 | -0.0521
35 | JUP C90 (UniProt P14923) | -0.0411 | -0.137 | – | –
36 | IVNS1ABP C274 (UniProt Q9Y6Y0) | -0.358 | -0.144 | – | –
37 | KIF20B C96 (UniProt Q96Q89) | -0.243 | 0.0777 | – | 0.41
38 | KIAA1107 C986 | -0.314 | 0.112 | -0.102 | 0.324
39 | KIF21A C1144 | -0.0525 | -0.2 | 0.22 | -0.314
40 | KIF1A C1508 | 0.0654 | 0.0634 | 0.516 | 0.174

2 entries from above, tab-delimited.
Row	Target	log2 mean competition ratio ([1]; 50 µM)	log2 mean competition ratio ([1]; 200 µM)	log2 mean competition ratio ([2]; 50 µM)	log2 mean competition ratio ([2]; 200 µM)
28	JPH1 C626 (UniProt Q9HDC5)	-0.109	0.011	–	–
32	KATNAL1 C7 (UniProt Q9BW62)	0.165	0.0316	-0.00468	0.413

Next part.

Row | Target | log2 mean competition ratio ([1]; 50 µM) | log2 mean competition ratio ([1]; 200 µM) | log2 mean competition ratio ([2]; 50 µM) | log2 mean competition ratio ([2]; 200 µM)
41 | ITPR2 C1462 (UniProt Q14571) | -0.121 | 0.023 | -0.113 | -0.0662
42 | KIAA1671 C842 | -0.122 | -0.277 | 0.131 | -0.349
43 | KDM5A C1409 (UniProt P29375) | 0.107 | 0.413 | -0.0308 | 0.39
44 | KIAA0513 C125 (UniProt O60268) | -0.0438 | -0.0316 | -0.413 | 0.0034
45 | JARID2 C522 (UniProt Q92833) | -0.202 | 0.207 | 0.0578 | 0.491
46 | KAT2A C815 (UniProt Q92830) | 0.195 | 0.149 | 0.065 | 0.165
47 | KCNK1 C69 (UniProt O00180) | 0.54 | 0.183 | -0.279 | -0.151
48 | IWS1 C749 (UniProt Q96ST2) | 0.0235 | 0.0754 | 0.193 | 0.205
49 | KAT2A C695 (UniProt Q92830) | -0.106 | -0.215 | 0.566 | -0.0296
50 | KIF20A C809 (UniProt O95235) | 0.604 | 0.46 | 0.455 | 0.26
51 | JRK C428 (UniProt O75564) | -0.11 | -0.0586 | -0.0332 | 0.149
52 | KIDINS220 C747 (UniProt Q9ULH0) | 0.306 | 0.0313 | 0.837 | 0.224
53 | KIF4A C1047 (UniProt O95239) | -0.0688 | 0.174 | -0.405 | 0.0244
54 | KIF18A C460 | -0.0955 | -0.0928 | 0.0366 | -0.281
55 | KIF1C C975 (UniProt O43896) | 0.658 | 0.281 | 0.611 | 0.189
56 | IVNS1ABP C143 (UniProt Q9Y6Y0) | -0.1 | -0.129 | 0.342 | -0.0455
57 | KIF20B C379 (UniProt Q96Q89) | -0.196 | -0.559 | -0.303 | -0.234
58 | KIF2A C199 (UniProt O00139) | -0.223 | -0.0749 | -0.236 | 0.0271
59 | KIF24 C669 | 0.187 | -0.0531 | -0.105 | 0.017
